Data: paper doi:10.1101/2022.10.13.511879 (bioRxiv, 2022)
These are yes or no findings as the source states them, for the method shown. In cells and extracts the contact can be indirect. Binding can be weak; no strength is given. Sequences can lack the tags named with a protein.

What was measured:
Test in all cases: co-IP
[1] = biological target: POPDC1 Δ116-Myc (not stated (human or mouse cDNA cloned))
[2] = biological target: POPDC1 Δ172-Myc (not stated (human or mouse cDNA cloned))
[3] = biological target: POPDC1 Δ236-Myc (not stated (human or mouse cDNA cloned))
[4] = biological target: POPDC1 Δ245-Myc (not stated (human or mouse cDNA cloned))

binding [1]: binds | binding [2]: binds | binding [3]: binds | binding [4]: binds
B1: POPDC2-FLAG (protein, UniProt Q9HBU9 1-364)
chain: MSANSSRVGQLLLQGSACIRWKQDVEGAVYHLANCLLLLGFMGGSGVYGCFYLFGFLSAGYLCCVLWGWFSACGLDIVLWSFLLAVVCLLQLAHLVYRLREDTLPEEFDLLYKTLCLPLQVPLQTYKEIVHCCEEQVLTLATEQTYAVEGETPINRLSLLLSGRVRVSQDGQFLHYIFPYQFMDSPEWESLQPSEEGVFQVTLTAETSCSYISWPRKSLHLLLTKERYISCLFSALLGYDISEKLYTLNDKLFAKFGLRFDIRLPSLYHVLGPTAADAGPESEKGDEEVCEPAVSPPQATPTSLQQTPPCSTPPATTNFPAPPTRARLSRPDSGILASRIPLQSYSQVISRGQAPLAPTHTPEL
